# PubChem BioAssay AID540275 (National Center for Advancing Translational Sciences (NCATS), 2011)
# Protein sequences, listed by entry. Tags and fused reporters are not part of them.
# UniProt Q8NER1, whole entry, looked up: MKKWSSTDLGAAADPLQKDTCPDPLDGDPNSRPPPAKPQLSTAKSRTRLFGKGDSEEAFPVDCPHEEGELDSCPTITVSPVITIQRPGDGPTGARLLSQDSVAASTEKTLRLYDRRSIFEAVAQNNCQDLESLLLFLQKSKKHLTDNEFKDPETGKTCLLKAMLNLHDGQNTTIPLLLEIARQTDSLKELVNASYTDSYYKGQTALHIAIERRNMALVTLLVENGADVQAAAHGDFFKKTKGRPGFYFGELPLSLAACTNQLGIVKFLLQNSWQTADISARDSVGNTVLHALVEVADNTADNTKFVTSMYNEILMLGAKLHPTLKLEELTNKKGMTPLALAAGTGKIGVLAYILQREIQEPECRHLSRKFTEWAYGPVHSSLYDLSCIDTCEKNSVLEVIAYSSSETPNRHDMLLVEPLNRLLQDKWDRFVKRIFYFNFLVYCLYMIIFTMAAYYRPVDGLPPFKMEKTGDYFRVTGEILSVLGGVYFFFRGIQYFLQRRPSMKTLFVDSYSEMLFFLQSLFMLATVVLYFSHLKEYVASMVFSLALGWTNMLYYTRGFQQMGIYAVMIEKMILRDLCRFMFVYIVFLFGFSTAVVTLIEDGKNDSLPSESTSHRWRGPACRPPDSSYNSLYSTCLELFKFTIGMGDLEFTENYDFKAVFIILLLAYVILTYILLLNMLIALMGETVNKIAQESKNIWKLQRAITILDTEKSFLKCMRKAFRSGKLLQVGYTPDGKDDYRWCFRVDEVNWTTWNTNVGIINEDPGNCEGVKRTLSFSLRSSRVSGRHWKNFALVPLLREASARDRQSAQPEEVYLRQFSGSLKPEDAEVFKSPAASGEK
# “And” between values parts separate entries of the source, which are not always exact repeats. Equal entries are not always repeated. The whole screen tested about 320,000 compounds, of which about 620 (0.19%) were called active. Inconclusive results, whose numbers are uncertain, are shown with a selection of clear calls. No stated cut-off is given here; in the data, active means activation above about 80%; inconclusive means between about 30% and that limit; inactive means weaker than that.
# Target: Transient receptor potential cation channel subfamily V member 1 (Homo sapiens) (UniProt Q8NER1)
# Test: HTS Assay for Compounds that Act as Agonists of the Vanilloid Receptor 1; further: 0% is about no effect
# Settings: TRPV1-expressing cells, Fluo-8 calcium influx, agonist mode; at 8.33 µM, hits give high values
# How it was run: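 Fluo-8 calcium influx in TRPV1-expressing cells, kinetic read (ex 480/em 520 nm). Compound added and read 3 min for agonist activity, followed by capsaicin at EC20 final and 2 min further read for enhancement.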
row,SMILES,activation
1,Cc1ccc(CN2CCC(c3cc(-c4ccc(Cl)cc4)n[nH]3)CC2)cc1,inactive: -3.02%
2,O=C(CSC1=NC2(CCCCCC2)N=C1c1ccccc1)Nc1ccc2c(c1)OCCO2,inconclusive: 57.1%
3,Clc1nssc1=Nc1ccc(Br)cc1,inactive: 9.55%
4,COC(=O)c1sccc1NC(=O)C1CCCCC1C(=O)O (stereo unspecified),inactive: -1.82%
5,CC(Oc1ccccc1)C(=O)N1CCN=C1SCc1ccccc1 (stereo unspecified),inconclusive: 42.4%
6,COCCSc1nnc(NC(=O)Cc2ccc(OC)c(OC)c2)s1,inconclusive: 30.5%
7,O=C(CCCc1c[nH]c2ccccc12)NCc1ccccc1F,inconclusive: 44.1%
8,O=C(Nc1ccccc1)C1COc2ccccc2O1 (stereo unspecified),inconclusive: 38.7%
9,O=S(=O)(c1ccccc1)N1CCCc2ccccc21,inactive: -2.41%
10,Cn1c(N2CCCC2)nc2c1c(=O)n(Cc1ccc(Cl)cc1)c(=O)n2C,inconclusive: 49.9%
11,CC(=O)N/C(=C\c1ccccc1)C(=O)OCc1ccc(F)cc1,inconclusive: 39.2%
12,O=C(NCc1cccs1)c1nc2c(nnn2Cc2ccccc2Cl)c(=O)[nH]1,inactive: -3.08%
13,CC(C)OCc1c(C(=O)Nc2nccs2)oc2ccccc12,inconclusive: 66.4%
14,C=CCN=C1CCCc2c1[nH]c1ccc(C)cc21,inconclusive: 40.2%
15,CCCc1nc(SCC(=O)Nc2cc(C)on2)c2ccccc2n1,inactive: -0.844%
16,O=C(Cc1ccccc1)Nc1ccccc1N1CCN(c2ccccc2)CC1,inconclusive: 33.2%
17,COc1ccc2nc(C)cc(Sc3nc4ccccc4s3)c2c1,inconclusive: 35.8%
18,CCCOc1ccc(N2C(=O)CC(N3CCN(C(=O)c4ccco4)CC3)C2=O)cc1 (stereo unspecified),inconclusive: 43.9%
19,COc1ccc(C(N)=S)cc1,inactive: -4.2%
20,Cc1ccc(S(=O)(=O)N2CCOCC2)cc1C(=O)NCc1ccc2c(c1)OCO2,inconclusive: 31%
21,CC(C)(C)c1ccc(OCc2ccc(C(=O)N3CCOCC3)o2)cc1,inconclusive: 55.6%
22,Cc1ccc(-n2cc(CN(C)Cc3ncc[nH]3)c(-c3cccc(C)c3)n2)cc1,inconclusive: 58.9%
23,COc1ccc(OC)c(C(=O)NC2CC(C)(C)Cc3c2cnn3-c2ccccc2)c1 (stereo unspecified),inconclusive: 48.7%

row,SMILES,activation
1,CC(NC(=O)COC(=O)C1(C)CC1(Cl)Cl)c1ccccc1 (stereo unspecified),inactive: 7.52%
2,CCC1=Nc2cc(C(=O)N3CCCCC3)ccc2Sc2ccc(C)cc21,inconclusive: 41.3%
3,CC(C)(C)c1ccc(Oc2ccc(NC(=O)c3ccco3)cn2)cc1,inconclusive: 63.9%
4,COc1ccc(CNC(=O)c2ccccc2SCC(=O)NCc2ccco2)cc1,inactive: 0.796%
5,Cc1ccc(-c2nnc(SCCC(=O)N3CCOCC3)o2)cc1,inconclusive: 34%
6,Fc1ccc(F)c(NC(=S)NCCc2ccccc2)c1,inconclusive: 48.1%
7,Cc1ccc2nc(NC(=O)c3ccc(NS(=O)(=O)c4cccs4)cc3)sc2c1,inconclusive: 42.5%
8,COc1cc2c(cc1OC)CN(C(=O)/C=C/c1ccc(F)cc1)CC2,inconclusive: 36.7%
9,COc1ccc(NC(=O)c2c([N+](=O)[O-])c(C(C)(C)C)nn2C)cc1,inconclusive: 37.6%
10,CCOC(=O)/C(C(=O)Nc1ccc(Br)cc1)=C1/NC(C)(C)Cc2ccccc21,inconclusive: 34.1%
11,O=C(NCc1ccccc1)C1c2ccccc2Oc2ccccc21,inconclusive: 32.8%
12,CCCC(=O)Nc1ncnc2c1ncn2[C@@H]1O[C@@H]2COP(=O)(O)O[C@H]2[C@H]1OC(=O)CCC,inactive: 5.28%
13,COc1ccc(CNC(=S)Nc2ccccc2C)cc1,inactive: 12.2%
14,O=C(COc1ccc(Cl)cc1)N1CCN(S(=O)(=O)c2ccccc2)CC1,inconclusive: 31.7%
15,Cc1cc(C)c2c(CN3CCC(C)CC3)cc(=O)oc2c1C,inconclusive: 40.7%
16,OCCNc1nc(-c2ccccc2)nc2c1oc1ccccc12,inconclusive: 33.1%
17,COc1nc(-c2ccccc2)ccc1-c1noc(C)n1,inconclusive: 60.9%
18,CC(=O)Nc1ccc(NC(=O)c2sc(-c3ccccc3)nc2C)cc1,inconclusive: 66.7%
19,Clc1ccc(-c2cc(-c3nnc4n3CCCCC4)c3ccccc3n2)cc1,inactive: -0.116%
20,CSc1ccccc1NC(=O)c1cccs1,inactive: 9.31%
21,O=C(Nc1ccc2c(c1)OCO2)c1noc2c1CCCCC2,inconclusive: 38.7%
22,COc1ccc(C(C#N)c2ccc(=O)[nH]n2)cc1 (stereo unspecified),inactive: 1.06%
23,CCc1sc(C(=O)N2CCN(c3ccc(F)cc3)CC2)cc1C,inconclusive: 31.5%

row,SMILES,activation
1,CC(C)CC(=O)N1CCC(N(CCc2ccccc2)Cc2ccccc2)CC1,inconclusive: 35.8%
2,O=C(c1ccccc1)C(Cn1cncn1)C(Sc1ccccc1)c1ccccc1 (stereo unspecified),inconclusive: 35.8%
3,Cc1ccc(CNC(=O)CSc2c3c(nc4cc(Cl)ccc24)CCCC3)o1,inconclusive: 32.8%
4,CSc1nsc(SC)c1C(=O)Nc1ccc(C(C)(C)C)cc1,inconclusive: 41.3%
5,CN(C)Cc1c(C(=O)N/N=C/CCc2ccccc2)nnn1-c1nonc1N,inactive: 0.788%
6,Fc1ccc(Nc2ncnc3sc4c(c23)CCC4)cc1F,inconclusive: 59.4%
7,NC(=O)c1ccccc1NC(=O)/C=C/c1cccc(Cl)c1,inconclusive: 64.3%
8,O=C(c1ccc(COc2ccccc2Cl)o1)N1CCN(Cc2ccc3c(c2)OCO3)CC1,inconclusive: 34.4%
9,Cc1cc(C)n(-c2nnc(C)n2/N=C/c2cc(Br)ccc2OCc2ccccc2)n1,inconclusive: 37.4%
10,O=C(CCc1ccccc1)Nc1ccc(S(=O)(=O)N2CCOCC2)cc1,inconclusive: 51.6%
11,COc1ccccc1N1CCN(C(=O)c2ccc(Br)s2)CC1,inconclusive: 44.3%
12,CCCC(=O)O[C@H]1C[C@@H](C)N(C(=O)c2ccccc2)c2ccc(C)cc21,inconclusive: 33.6%
13,CCOC(=O)N1CCC(N2CCCC(C(=O)c3cc(C)c(OC)c(C)c3)C2)CC1 (stereo unspecified),inactive: 0.21%
14,C/C(=N\O)C(C)(C)Nc1cccc(F)c1,inactive: -3.44%
15,N#CC1=C(N)OC2=C(C(=O)CCC2)C1C1C=CCCC1 (stereo unspecified),inconclusive: 42.9%
16,O=C(NC(=S)Nc1cc(Cl)ccc1N1CCOCC1)c1ccccc1[N+](=O)[O-],inconclusive: 53.7%
17,O=C(NCc1cccc(Cl)c1)c1cccc(S(=O)(=O)N2CCCCC2)c1,inconclusive: 42.3%
18,O=C(NNC(=S)NC(=O)C12CC3CC(CC(C3)C1)C2)c1ccncc1,inconclusive: 42.3%
19,CCOC(=O)c1c(N)sc(C(=O)Nc2ccc3c(c2)OCO3)c1C,inactive: 25.9%
20,CC(C)CC(=O)OC1C(N2CCOCC2)c2c(ccc(/C=C/C(=O)N3CCOCC3)c2O)OC1(C)C (stereo unspecified),active: 81%
21,COc1ccc(OC)c2c(C)cc(N3CCCN(C)CC3)nc12,inactive: -1.56%
22,Cc1ccc([N+](=O)[O-])cc1NC(=O)c1ccc(C(C)(C)C)cc1,inconclusive: 39.4%
23,O=C(Nc1nsc(-c2ccccc2)n1)c1ccc(F)cc1,inconclusive: 76.6%

row,SMILES,activation
1,Cc1ccc(N(C)S(=O)(=O)c2cccc(C(=O)NC3=NCCS3)c2)cc1,inconclusive: 38.1%
2,Cc1ccc(C(=O)Nc2ccc(OCc3ccccc3)cc2)s1,inconclusive: 41.9%
3,COc1ccc(C(C(=O)NC2CCCCC2)N(C(=O)c2snc(C(N)=O)c2N)c2ccc(OC)cc2OC)cc1 (stereo unspecified),inconclusive: 43.7%
4,O=C(NC1CCCCC1)c1cc(C2CC2)nn1-c1ccccc1,inconclusive: 45.8%
5,O=C(c1ccco1)N1CCN(c2ncnc3sc4c(c23)CCC4)CC1,inconclusive: 31.3%
6,Fc1ccccc1-c1nc(NCc2ccccc2)c2ccccc2n1,inactive: 2.98%
7,CC1CCc2sc(C(=O)NNC(=O)c3ccncc3)cc2C1 (stereo unspecified),inconclusive: 61%
8,COc1ccc(-c2ccc(OC)c([C@H]3[C@H]4C=CC[C@@H](C)[C@@H]4C(=O)N3Cc3ccccc3)c2)cc1C,inactive: 27.1%
9,COC(=O)c1ccc2c(=O)n(CCCCCC(=O)NCc3ccccn3)c(=O)[nH]c2c1,inactive: -2.12%
10,CC(C)CN(CC(C)C)S(=O)(=O)N1CCC(C(=O)NCc2ccccn2)CC1,inconclusive: 47.2%
11,COc1cc(/C=N/Nc2ncc(C(F)(F)F)cc2Cl)cc(OC)c1O,inconclusive: 52.7%
12,CC(C)OCCCNC(=S)N1CCC(C(=O)c2ccc3c(c2)OCCO3)CC1,inconclusive: 32.5%
13,CCC(C(=O)NCCCc1ccccc1)c1ccccc1 (stereo unspecified),inconclusive: 72.7%
14,COc1ccc(Cc2nc(C(=O)Nc3ccc(OC)cc3)cs2)cc1,inconclusive: 49.2%
15,CCCOc1ccc(N2C(=O)CC(N3CCN(c4ccc([N+](=O)[O-])cc4)CC3)C2=O)cc1 (stereo unspecified),inactive: 0.113%
16,COc1cccc(-c2nn(-c3ccccc3)cc2CN(C)Cc2ccno2)c1,inconclusive: 42.4%
17,O=C(Cc1ccccc1)NNc1c2ccccc2nc2ccccc12,inconclusive: 45.8%
18,Cc1ccc2nc(SCC(=O)NCc3cccs3)[nH]c2c1,inconclusive: 57.2%
19,CCCn1c2c(c(=N)c3c1CCC3)CCC2,inactive: -2.61%
20,O=C1S/C(=C\c2ccc(O)c([N+](=O)[O-])c2)C(=O)N1Cc1cccc([N+](=O)[O-])c1,inactive: 2.61%
21,S=C(Nc1ccc(Cl)cc1Cl)NC1CCCCC1,inconclusive: 41.5%
22,CN1CCN(CCCN2c3ccccc3Sc3ccc(Cl)cc32)CC1,inactive: 3.39% and inactive: 0.167% and inactive: 2.67%

# Gathered by group: those above containing bromine
row,SMILES,activation
3,Clc1nssc1=Nc1ccc(Br)cc1,inactive: 9.55%
10,CCOC(=O)/C(C(=O)Nc1ccc(Br)cc1)=C1/NC(C)(C)Cc2ccccc21,inconclusive: 34.1%
9,Cc1cc(C)n(-c2nnc(C)n2/N=C/c2cc(Br)ccc2OCc2ccccc2)n1,inconclusive: 37.4%
11,COc1ccccc1N1CCN(C(=O)c2ccc(Br)s2)CC1,inconclusive: 44.3%
